# Assay results reported in PubChem BioAssay AID485314 (National Center for Advancing Translational Sciences (NCATS), 2010).
# In all, about 340,000 compounds went through this assay and about 4,500 (1.3%) were called active. The inconclusive results got no clear call from the source; some entries with a clear call stand among them for comparison. The call rests on the fitted dose curve; in most records, active means well fitted inhibition curve with a large enough effect; inconclusive means small, poorly fitted or top-dose-only effect, or another doubt; inactive means no such curve, though single readings can be large or run the other way. Potencies beside an inconclusive call are fits to weak or partial responses and may not hold up.
# Target: DNA polymerase beta (Homo sapiens) (UniProt P06746)
# Assay: qHTS Assay for Inhibitors of DNA Polymerase Beta
# Conditions: Pol beta primer extension/strand displacement, fluorescence kinetic; activity change, negative = inhibition: at 114 µM (top of the series)
# Summary of the method: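 Pol beta (10 nM) and compounds were preincubated 15 min at room temperature, then 50 nM substrate (final) started primer extension/strand displacement. Reads were taken at 0 and 10 min; concentration-response data were fitted to a four-parameter Hill equation.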
# On the % scale 0 is the no-effect control and ±100 the full control effect; potency means the concentration at half of the fitted maximal effect.
SMILES,Potency,"activity change, negative = inhibition"
CC(C)Nc1ccc(-c2nc(-c3ccncc3)no2)cc1[N+](=O)[O-],"inconclusive: 35.5 µM [inhibitor, partial curve]",–
COc1ccc([N+](=O)[O-])cc1NC(=O)CS(=O)(=O)c1ccc(C)cc1,–,inactive: 1.72%
CCc1ccc2nc(NC(=O)Cn3cnc4ccccc4c3=O)sc2c1,"inconclusive: 17.8 µM [inhibitor, single point]",–
CCN1C(=O)/C(=C2\SC(=S)N(CC3CCCO3)C2=O)c2ccccc21 (stereo not given),"inconclusive: 0.112 µM [inhibitor, full curve]",–
Cc1ccc(NC(=O)CN2C(=O)CCc3ccccc32)cc1C,active: 22.4 µM,–
Cc1ccc(NC(=O)c2ccc(OC(=O)c3cc4ccccc4o3)cc2)cc1,"inconclusive: 12.6 µM [inhibitor, partial curve]",–
O=C(NCc1ccc2c(c1)OCO2)NC1CCCCC1,"inconclusive: 39.8 µM [inhibitor, single point]",–
Cc1ccc(C(=O)NC(=S)NCc2ccco2)cc1,"inconclusive: 22.4 µM [inhibitor, full curve, poor fit]",–
CC(C)CCOc1ccc(C2N=C(N)Nc3nc4ccccc4n32)cc1 (stereo not given),–,inactive: 3.72%
Cc1nn(C(C)C(=O)NC2CCC(C)CC2)c(=O)c2c1sc1ccccc12 (stereo not given),"inconclusive: 44.7 µM [inhibitor, partial curve]",–
O=C(Nc1ccc2nn(-c3ccc(F)cc3)nc2c1)c1cccnc1,"inconclusive: 17.8 µM [inhibitor, single point]",–
Cc1cc(/C=C2/C(=O)NN(c3ccccc3)C2=O)c(C)n1-c1cccc(O)c1,"inconclusive: 28.2 µM [inhibitor, full curve]",–
CN(C)CCOc1nc(-c2ccccc2)nc2c1oc1ccccc12,active: 44.7 µM,–
O=C(NCCCn1ccnc1)c1noc2c1CCCC2,"inconclusive: 0.141 µM [inhibitor, full curve, poor fit]",–
COc1ccc(S(=O)(=O)c2cnc3cc(OC)c(OC)cc3c2N2CCCC(C)C2)cc1 (stereo not given),"inconclusive: 44.7 µM [inhibitor, partial curve, poor fit]",–
CC1=NN(S(=O)(=O)c2ccc(Cl)cc2Cl)C(=O)c2ccccc2O1,–,inactive: -3.08%
CCN1CC2([N+](=O)[O-])C=CC(=O)C([N+](=O)[O-])(C1)C2CC(=O)c1ccccc1 (stereo not given),–,inactive: -0.0461%
O=C(CN1C(=O)S/C(=C\c2cccs2)C1=O)Nc1ccc(O)c(C(=O)O)c1,"inconclusive: 31.6 µM [inhibitor, single point]",–
Cc1nn(CC(=O)NC(C)C)c(C)c1[N+](=O)[O-],"inconclusive: 79.4 µM [inhibitor, single point]",–
O=C1NC(c2ccccc2)=C(c2ccc3ccccc3n2)C(c2ccccc2)N1 (stereo not given),"inconclusive: 39.8 µM [inhibitor, single point]",–
O=C(O)c1ccccc1C(=O)N1N=C(c2ccccc2)CC1c1ccccc1O (stereo not given),"inconclusive: 100 µM [inhibitor, single point]",–
O=[N+]([O-])c1cccc(NC(=S)N2CCN(S(=O)(=O)c3ccccc3)CC2)c1,"inconclusive: 39.8 µM [inhibitor, single point]",–

SMILES,Potency,"activity change, negative = inhibition"
O=C(COc1ccccc1Cl)Nc1nnc(S(=O)(=O)N2CCCC2)s1,"inconclusive: 35.5 µM [inhibitor, full curve]",–
Cn1c(=O)oc2cc(S(=O)(=O)Nc3cccc4c3CCCC4)ccc21,"inconclusive: 89.1 µM [inhibitor, single point]",–
CCN(CC(=O)NCc1ccc(Cl)cc1)C(=O)/C=C/c1ccc(Cl)c([N+](=O)[O-])c1,–,inconclusive: -45.5% [inhibitor]
COC(=O)c1cc(-c2ccc(C)o2)nc2ccccc12,"inconclusive: 15.8 µM [inhibitor, full curve]",–
CN1CCN(S(=O)(=O)c2ccc(NC(=O)c3ccc(Br)o3)cc2)CC1,"inconclusive: 5.01 µM [inhibitor, full curve, poor fit]",–
CO[C@H]1C=CO[C@@]2(C)Oc3c(C)c(O)c4c(O)c(c5c(c4c3C2=O)NC2(CCN(CC(C)C)CC2)N=5)=NC(=O)C(C)=CC=C[C@H](C)[C@H](O)[C@@H](C)[C@@H](O)[C@@H](C)[C@H](OC(C)=O)[C@@H]1C,"inconclusive: 89.1 µM [inhibitor, single point]",–
CCC(=O)Nc1ccc(Cl)c(NC(=O)c2cccc(OC)c2)c1,"inconclusive: 35.5 µM [inhibitor, partial curve]",–
CSc1ccc(CCNC(=O)c2cccc3c2C(=O)N(C2CCCCC2)C3)cc1,"inconclusive: 0.158 µM [inhibitor, full curve, poor fit]",–
Cc1cccc(NC(=O)CN(C)S(=O)(=O)c2ccc3c(c2)c(=O)n(C)c(=O)n3C)c1,"inconclusive: 39.8 µM [inhibitor, partial curve]",–
CC1CCCCN1CC(=O)N1CCCc2c1c(=O)oc1ccc(OCc3ccccc3)cc21 (stereo not given),"inconclusive: 7.94 µM [inhibitor, single point]",–
O=c1cc(COc2ncnc3c(Cl)cc(Cl)cc23)nc2sccn12,"inconclusive: 79.4 µM [inhibitor, partial curve, poor fit]",–
COc1ccc(-n2cnnc2SCC(=O)Nc2nc(C)c(Cl)cc2Cl)cc1,"inconclusive: 79.4 µM [inhibitor, single point]",–
CCc1nnc(NC(=O)CS(=O)(=O)c2ccccc2)s1,"inconclusive: 3.98 µM [inhibitor, full curve]",–
Cc1ccc(-c2csnn2)cc1,"inconclusive: 89.1 µM [inhibitor, single point]",–
Cc1ccccc1OCC(=O)NNC(=O)CCN1C(=O)c2ccccc2C1=O,–,inactive: -0.408%
COc1cc(/C=C2\C(=O)N(c3ccc(S(N)(=O)=O)cc3)N=C2C)ccc1OC(=O)c1ccco1,"inconclusive: 10 µM [inhibitor, partial curve]",–
CCOC(=O)c1sc(NC(=O)c2ccc3nc[nH]c3c2)nc1C,"inconclusive: 35.5 µM [inhibitor, full curve]",–
COC(=O)c1c(NC(=O)CSc2nnc3ccccn23)sc2c1CCC2,"inconclusive: 15.8 µM [inhibitor, full curve]",–
O=C(COc1ccccc1Cl)Nc1ccc(C(=O)O)cc1NC(=O)COc1ccccc1Cl,"inconclusive: 89.1 µM [inhibitor, single point]",–
COCCN1CC(=O)N2C(c3cccc(OC)c3)c3[nH]c4ccccc4c3C[C@H]2C1=O (stereo not given in full),"inconclusive: 0.708 µM [inhibitor, full curve, poor fit]",–
[O-][n+]1onc2c1CCC(=N/O)/C2=N\Nc1ccccc1,active: 39.8 µM,–
CC(C)=CCC/C(C)=C/CC/C(C)=C/CC/C(C)=C/CC1=C(C)C(=O)c2ccccc2C1=O,–,inactive: 9.89%

SMILES,Potency,"activity change, negative = inhibition"
Cc1cc(-c2ccc(Br)s2)nc(-n2cccc2)n1,"inconclusive: 0.251 µM [inhibitor, full curve, poor fit]",–
O=C(NCc1ccco1)c1ccc([N+](=O)[O-])o1,active: 12.6 µM,–
Cn1c(=O)c2c(nc(NCc3ccco3)n2CC(O)COc2ccccc2)n(C)c1=O (stereo not given),"inconclusive: 35.5 µM [inhibitor, single point]",–
C=C(C)c1cccc(C(C)(C)NC(=O)Nc2ccc(Cl)cn2)c1,"inconclusive: 39.8 µM [inhibitor, partial curve, poor fit]",–
COC(=O)c1ccccc1NC(=O)Cc1noc2ccc(C)cc12,"inconclusive: 100 µM [inhibitor, single point]",–
Cc1ccc(S(=O)(=O)c2c(N)n(/N=C/c3ccco3)c3nc4ccccc4nc23)cc1C,"inconclusive: 56.2 µM [inhibitor, partial curve]",–
Cc1cccc(NC(=S)NC(=O)/C=C/c2ccco2)c1,active: 31.6 µM,–
CC1CCN(Cc2cc(=O)oc3cc(O)c(Cl)cc23)CC1,–,inactive: 4.97%
CC/C(C)=N/Nc1nc2c(c(=O)[nH]c(=O)n2C)n1Cc1ccccc1,"inconclusive: 63.1 µM [inhibitor, single point]",–
CSc1ccc(CCNC(=O)Cn2ncc3c(=O)oc4ccc(C)cc4c32)cc1,–,inactive: 3.85%
Cc1ccc(S(=O)(=O)NC(=O)c2cc(C)n(CC(c3ccccc3)N(C)C)c2C)cc1 (stereo not given),"inconclusive: 39.8 µM [inhibitor, single point]",–
O=C(CSc1ncnc2ccccc12)NCc1ccco1,active: 25.1 µM,–
Cc1ccc(N(CC(=O)N/N=C/c2ccco2)S(=O)(=O)c2ccccc2)cc1,"inconclusive: 89.1 µM [inhibitor, single point]",–
Cc1cccc(NC(=O)Cn2cc(C(=O)c3ccco3)c3ccccc32)c1C,"inconclusive: 63.1 µM [inhibitor, single point]",–
COc1ccc(CN2C(=O)C(NC(=O)c3ccccc3C)(C(F)(F)F)N=C2c2ccccc2)cc1 (stereo not given),–,inactive: -7.18%
O=C(Nc1ccccc1Cc1ccccc1)C1CC(=O)N(c2ccc3c(c2)OCCO3)C1 (stereo not given),"inconclusive: 10 µM [inhibitor, full curve, poor fit]",–
CCOC(=O)c1cccc(Nc2ccc3cc(S(=O)(=O)N4CCCCC4)ccc3n2)c1,–,inactive: -3.1%
CCN(CC)CCCN=Cc1c(O)n(-c2cccc(C)c2)c(=O)c2ccccc12,–,inactive: 5.62%
Cc1ccc2c(c1)C1OCCC1C1N2C(=O)C2C(C(=O)O)C3C=CC21O3 (stereo not given),active: 39.8 µM,–
CCCC(=O)N1c2nc(C(C)C)nn2C2(CCCCC2)[C@@H]2CCCC[C@@H]21,–,inactive: -5.28%
CC1=NN(c2ccc(Cl)c(C(=O)O)c2)C(=O)/C1=C\c1ccc(-c2ccc(C(=O)O)cc2)o1,active: 15.8 µM,–

# Compounds above containing fluorine (2):
SMILES,Potency,"activity change, negative = inhibition"
O=C(Nc1ccc2nn(-c3ccc(F)cc3)nc2c1)c1cccnc1,"inconclusive: 17.8 µM [inhibitor, single point]",–
COc1ccc(CN2C(=O)C(NC(=O)c3ccccc3C)(C(F)(F)F)N=C2c2ccccc2)cc1 (stereo not given),–,inactive: -7.18%
